Protein sequences, listed by entry. Tags and fused reporters are not part of them.
UniProt Q8NER1, whole entry, looked up: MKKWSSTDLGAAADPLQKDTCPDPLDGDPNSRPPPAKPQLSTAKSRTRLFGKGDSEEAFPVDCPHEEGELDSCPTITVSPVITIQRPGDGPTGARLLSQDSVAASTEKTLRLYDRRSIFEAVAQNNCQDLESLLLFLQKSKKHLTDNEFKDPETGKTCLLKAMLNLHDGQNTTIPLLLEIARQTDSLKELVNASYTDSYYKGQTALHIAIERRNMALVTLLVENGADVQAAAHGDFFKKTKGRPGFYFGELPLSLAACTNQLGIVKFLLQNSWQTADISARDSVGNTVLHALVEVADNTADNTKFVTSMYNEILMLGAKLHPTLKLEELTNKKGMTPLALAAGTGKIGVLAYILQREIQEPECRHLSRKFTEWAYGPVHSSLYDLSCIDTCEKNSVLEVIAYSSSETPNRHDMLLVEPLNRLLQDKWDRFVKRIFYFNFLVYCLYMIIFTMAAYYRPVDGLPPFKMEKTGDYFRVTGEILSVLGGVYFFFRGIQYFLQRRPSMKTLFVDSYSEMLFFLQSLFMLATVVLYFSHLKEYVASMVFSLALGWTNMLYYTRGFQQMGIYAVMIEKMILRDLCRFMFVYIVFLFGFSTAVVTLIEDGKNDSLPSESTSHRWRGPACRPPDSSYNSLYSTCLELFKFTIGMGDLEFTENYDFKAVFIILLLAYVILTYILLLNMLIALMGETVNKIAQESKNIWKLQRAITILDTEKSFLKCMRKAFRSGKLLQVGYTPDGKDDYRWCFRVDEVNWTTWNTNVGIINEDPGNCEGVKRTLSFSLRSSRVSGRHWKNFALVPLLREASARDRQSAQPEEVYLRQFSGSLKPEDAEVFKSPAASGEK

About 620 (0.19%) of roughly 320,000 compounds were called active. Inconclusive results, whose numbers are uncertain, are shown with a selection of clear calls. No stated cut-off is given here; in the data, active means activation above about 80%; inconclusive means between about 30% and that limit; inactive means weaker than that.
What follows are compounds tested against Transient receptor potential cation channel subfamily V member 1 (Homo sapiens) (UniProt Q8NER1) (assay: HTS Assay for Compounds that Act as Agonists of the Vanilloid Receptor 1). Conditions: TRPV1-expressing cells, Fluo-8 calcium influx, agonist mode; at 8.33 µM, stronger effect = higher value.
Outline: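 TRPV1-expressing cells were cultured overnight at 35.5C and loaded with Fluo-8 calcium dye for 40 to 90 min at room temperature. After a 10 s baseline, compound was added and calcium influx was read kinetically for 3 min (ex 480/em 520 nm).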
For Cc1ccc(C(=O)ON=C2CCN(S(=O)(=O)c3ccccc3)CC2)cc1, the activation was inconclusive: 41.8%. CC(=O)Nc1ccc(NC(=O)C(C)OC(=O)C2(c3ccc(F)cc3)CCCC2)cc1 (centres undefined) was tested, and the activation was inconclusive: 46.4%. With CC(C)c1ccc(C(=O)NCCCc2ccccc2)cc1 the activation was inconclusive: 61.6%. COc1ccc(-c2nc(C(=O)NCC3CCCO3)cc3c2[nH]c2ccccc23)cc1 (centres undefined) was tested, and the activation was inconclusive: 71.4%. In the case of Cn1cccc1CC(=O)NNC(=O)Nc1ccccc1F, the activation is reported as inactive: 0.955%. With Oc1c(Cl)cc(Cl)cc1C=Nc1ccc2c(c1)OCCO2 the activation was inactive: -2.09%. For CCN(Cc1cnn(C)c1)C(=O)c1ccc2nc(Cc3cccc(Cl)c3)oc2c1, the activation was inactive: 1.26%. In the case of CN(C)c1ccc(N/C=C/C(=O)c2ccccc2)cc1, the activation is reported as inactive: 2.71%. For Cc1ccc(-c2nc(SCC(=O)NCC3CCCO3)c(-c3ccccc3)[nH]2)cc1 (centres undefined), the activation was inconclusive: 61.1%. In the case of COc1ccc(NC(=O)CN(c2c(C)cccc2C)S(C)(=O)=O)cc1, the activation is reported as inactive: 3.75%. With Cc1cc2c(N3CCCCC3C)ncnc2s1 (centres undefined) the activation was inconclusive: 51.3%. With CN(CC(=O)NC1CCCCCC1)S(=O)(=O)c1cnc[nH]1 the activation was inactive: -3.7%. For CC(=O)c1ccc(N=Cc2c(O)n(-c3cc(Cl)ccc3N3CCOCC3)c(=O)c3ccccc23)cc1, the activation was inactive: 19.9%. O=S(=O)([O-])CCC[n+]1c(/C=C\Nc2ccccc2)oc2ccc(-c3ccccc3)cc21 was tested, and the activation was inconclusive: 36.6%. With Cc1cc(S(=O)(=O)N(Cc2ccc3c(c2)OCO3)CC2CCCO2)ccc1-n1cnnn1 (centres undefined) the activation was inconclusive: 79.4%. Cc1cc(C(=O)NCCc2ccccc2)ccc1[N+](=O)[O-] was tested, and the activation was inconclusive: 77.5%. With Cc1ccc(O)c(NC(=O)c2cccc(S(=O)(=O)N3CCCCC3)c2)c1 the activation was inconclusive: 40.8%. Cn1cccc1/C=N\NC(=O)C1COc2ccccc2O1 (centres undefined) was tested, and the activation was inactive: 29.4%. For CCOC(=O)c1cc(OCC(=O)NC(C)C(C)C)cc(C(=O)OCC)c1 (centres undefined), the activation was inconclusive: 30.2%. For CC(=O)Nc1cccc(OCCCNC(=O)c2ccc(C(C)(C)C)cc2)c1, the activation was inconclusive: 73.7%. For CCCP(=O)(CCC)CCP(=O)(c1ccccc1)c1ccccc1, the activation was inactive: -0.485%. CCOc1cc(C(=O)Nc2ccc3c4c(cccc24)C(=O)N3CC)cc(OCC)c1OCC was tested, and the activation was inactive: 1.47%. With COC(=O)c1ccc(C(=O)OC)c(NC(=O)CN2CCCCC2)c1 the activation was inconclusive: 44.8%. With CC(=O)c1ccc(NC(=O)c2cc(CC(C)C)on2)cc1 the activation was inconclusive: 39%. In the case of CC(C)CNS(=O)(=O)c1ccc(C(=O)Nc2ccc3c(c2)OCO3)cc1, the activation is reported as inconclusive: 43.1%. In the case of Cc1ccc(NCCC(=O)c2cccs2)cc1C, the activation is reported as inconclusive: 70.5%. FC(F)Sc1ccc(NC(=S)NC2CCCC2)cc1 was tested, and the activation was inconclusive: 52.8%. O=C(Nc1ccc2c(c1)OCO2)C1CCN(C(=O)CSc2ncnc3ccccc23)CC1 was tested, and the activation was active: 80.8%. Cc1nc(-c2ccccc2)cn2c1nc1ccccc12 was tested, and the activation was inconclusive: 67.1%. With O=C(COc1ccc(F)c(Cl)c1)N1CCCCCCC1 the activation was inconclusive: 39.7%. With COc1cc(-c2nnc(CSc3nc4ccccc4s3)o2)cc(OC)c1OC the activation was inconclusive: 40.1%. In the case of CN(CC(=O)Nc1cccc(F)c1)C(=O)c1ccc(N2CCCCCC2)c([N+](=O)[O-])c1, the activation is reported as inconclusive: 36.8%. COc1cccc(C2=NOC(C(=O)Nc3ccc(OC)c(OC)c3)C2)c1 (centres undefined) was tested, and the activation was inconclusive: 46.1%. O=C(Oc1cccc(NC(=O)c2ccco2)c1)c1ccc(Br)c(S(=O)(=O)N2CCCCC2)c1 was tested, and the activation was inconclusive: 32.3%. For O=C(CNCc1ccccc1Cl)Nc1ccccc1N1CCCCC1, the activation was inconclusive: 35%. For Cc1ccc2c(c1)C(c1ccc(F)cc1)N(C(=O)c1ccccc1Br)CC(=O)N2 (centres undefined), the activation was inconclusive: 59%. For Cc1ccc(-c2nnc(SCC(=O)N(C)C)nc2-c2ccc(C)cc2)cc1, the activation was inconclusive: 41.8%. For CCOc1ccc(NC(=O)NCCCSC2CCCCC2)cc1, the activation was inconclusive: 63.3%. With O=C(NCc1ccccc1Cl)c1ccc2c(c1)OCO2 the activation was inconclusive: 61.1%. Cc1ccc(S(=O)(=O)N2CCC(=O)N(CCOCc3ccccc3)CC2)cc1 was tested, and the activation was inconclusive: 34.7%. In the case of Cc1ccc(N2C(=O)C(Cl)=C(NCCO)C2=O)c(C)c1, the activation is reported as inconclusive: 51.5%. Clc1ccc2c(N/N=C/c3cccnc3)ccnc2c1 was tested, and the activation was inconclusive: 53.8%. With COc1cccc(CNC(=O)c2ccc(C)c(S(=O)(=O)N3CCCCC3)c2)c1 the activation was inconclusive: 45.1%. CC(C)CNc1nnnc2c1sc1nc(N3CCOCC3)c3c(c12)CC(C)(C)SC3 was tested, and the activation was inconclusive: 47.7%. In the case of O=[N+]([O-])c1ccccc1S(=O)(=O)NCCSc1ccccc1, the activation is reported as inactive: 3.37%. With CCCCn1c(N)c(N(CCOC)C(=O)c2ccc(-c3ccc(C(C)=O)cc3)o2)c(=O)[nH]c1=O the activation was inactive: 2.16%. Cc1ccc([N+](=O)[O-])cc1N=C(c1ccc([N+](=O)[O-])cc1)N1CCOCC1 was tested, and the activation was inconclusive: 31.2%. In the case of CC1CN(C(=O)CN(C)S(=O)(=O)c2ccc3ccccc3c2)CC(C)O1 (centres undefined), the activation is reported as inactive: 0.0105%. In the case of Cc1ccc(N(C)C(=O)c2cc(S(=O)(=O)N3CCCCC3)c[nH]2)cc1, the activation is reported as inconclusive: 48.9%. In the case of O=C(CSc1nnc(-c2ccccc2Cl)o1)N1CCOCC1, the activation is reported as inconclusive: 53%. In the case of COC(=O)c1ccc(/C=C/c2ccc3cccc(OC(C)=O)c3n2)cc1, the activation is reported as inactive: 2.95%. O=C(Nc1ncc(Cc2ccccc2Cl)s1)c1ccc([N+](=O)[O-])cc1 was tested, and the activation was inconclusive: 34.1%. For CC(=O)N1CC(c2ccccc2)C(c2ccc(Cl)cc2)=N1 (centres undefined), the activation was inconclusive: 40.3%. In the case of O=C(Nc1ccccc1)c1cc2ccccc2o1, the activation is reported as inconclusive: 63%. For CCc1ccc(NC(=O)Nc2cccc(OC)c2)cc1, the activation was inconclusive: 51.3%. COc1ccc(CNC(=O)C[C@H]2C(=O)N(CCc3ccccc3)C[C@@H]2Cc2ccccc2)cc1 was tested, and the activation was inconclusive: 56.2%. For COc1ccc(CNCc2cccc3ccccc23)cc1, the activation was inactive: 7.42%. In the case of c1ccc(-c2ccc(-c3nc(-c4cccnc4)no3)cc2)cc1, the activation is reported as inactive: 1.82%. In the case of O=C(COC(=O)c1ccccc1C(=O)c1ccc(Cl)c([N+](=O)[O-])c1)NC1CCCCCC1, the activation is reported as inconclusive: 32.2%. CCCCN1C(=O)C2(NNc3ccccc3O2)c2ccccc21 (centres undefined) was tested, and the activation was inconclusive: 47.7%. Cc1cccc(OCc2nnc(SCC(=O)N3CC(=O)Nc4ccccc43)o2)c1 was tested, and the activation was inactive: 2.21%. In the case of CCCn1c(C(C)Nc2nc(-c3ccc(C)cc3)cs2)nc2cc(Cl)c(N3CCCCC3)cc21 (centres undefined), the activation is reported as inconclusive: 38.1%. COc1ccc(Cn2cc(F)c(=O)n(CCC(C)C)c2=O)cc1[N+](=O)[O-] was tested, and the activation was inconclusive: 63.9%. In the case of Cc1cccc(OC(C)C(=O)Nc2nc(-c3ccncc3)cs2)c1 (centres undefined), the activation is reported as inactive: 4.28%. For COc1cc(/C=N/NC(=O)C[n+]2ccccc2)cc(OC)c1OC(C)=O, the activation was inactive: 2.13%. With CCOC(=O)C(=Cc1ccc(-n2cncn2)cc1)C(=O)OCC the activation was inactive: 0.776%. With Cc1cnc(C(=O)Nc2ccc(C(C)C)cc2)cn1 the activation was inconclusive: 66.1%. With CCCCc1ccc(NC(=O)NCc2cccnc2)cc1 the activation was inconclusive: 44.9%. In the case of O=c1c2ccc(Cl)cc2[nH]c(=S)n1CCCN1CCOCC1, the activation is reported as inactive: 4.34%. In the case of COC(=O)C1C(=O)C=C(N2CCOCC2)CC1(C)C (centres undefined), the activation is reported as inactive: -0.724%. For CCCNC(=O)c1cccc(S(=O)(=O)N2CC3(C)CC2CC(C)(C)C3)c1 (centres undefined), the activation was inconclusive: 32%. In the case of COc1cc(S(=O)(=O)N2CCN(Cc3ccccc3)CC2)ccc1Br, the activation is reported as inconclusive: 36.1%. COc1ccc(C(=O)NNC(=S)NC(=O)C(C)(C)C)cc1 was tested, and the activation was inconclusive: 41%. In the case of CCCCc1nc(N2CCN(C(=O)c3ccco3)CC2)c(C#N)c2c1CCCC2, the activation is reported as active: 86.4%. O=C(Cn1cncn1)NCCCc1ccccc1 was tested, and the activation was inactive: 8.39%. In the case of COc1ccc(CCNc2nc(C)nc3c2nnn3Cc2ccccc2)cc1OC, the activation is reported as inconclusive: 64.5%. For O=C(CN1C(=O)CC(c2ccccc2)=Nc2ccccc21)NCc1ccccc1, the activation was inconclusive: 34.9%. With Cc1cccc(NC(=O)c2c(F)c(F)c(F)c(F)c2F)c1 the activation was inconclusive: 55.7%. For CC1CCN(C(=O)COC(=O)c2cccc(S(=O)(=O)N(C)c3ccccc3)c2)CC1, the activation was inconclusive: 55.7%. With CN(C(=O)c1ccc(NC(=O)Cc2ccc(NC(=O)C3CCCN(C(=O)CCc4ccccc4)C3)cc2)cc1)C1CC1 (centres undefined) the activation was inactive: -0.193%. In the case of Cc1oc(-c2cc(F)ccc2F)nc1CN1CCN(c2ncnc3ccccc23)CC1, the activation is reported as inconclusive: 42.2%. With CC(C)c1ccc(NC2CCCN(C(=O)C3=NN(C)C(=O)CC3)C2)cc1 (centres undefined) the activation was inconclusive: 73.1%. COc1ccc(OCC(=O)Nc2ccc(S(=O)(=O)N3CCOCC3)cc2)cc1 was tested, and the activation was inactive: 4.64%. O=C(N/N=C/c1ccc([N+](=O)[O-])o1)c1ccc2c(c1)OCO2 was tested, and the activation was inconclusive: 33.7%. With Cc1nc(N2CCCCC2)c2c(C)c(C(=O)Nc3ccccc3C(F)(F)F)sc2n1 the activation was active: 89.5%. In the case of CCOC(=O)c1[nH]c2ccc(C)cc2c1NC(=O)CN1CCCCC1, the activation is reported as inconclusive: 79.5%. In the case of CN1CCSc2ccc(C(=O)Nc3cccc(F)c3)cc21, the activation is reported as inconclusive: 54.4%. With CNc1oc(-c2ccccc2)nc1S(=O)(=O)c1ccc(C)cc1 the activation was inconclusive: 39.8%. For COc1ccccc1C(=O)Nc1ccnn1C1CCN(CC2CC=CCC2)CC1 (centres undefined), the activation was inactive: 3.06%.

— PubChem BioAssay AID540275 (National Center for Advancing Translational Sciences (NCATS), 2011)
Further: 0% is about no effect.
